Literature values as cited in patent US8523569B2, “Controlled release local anesthetic for post dental surgery and method of use” (priority 2007, dated 2013).
Some results were stated once for a whole list of compounds, not compound by compound. For at least one compound, name, drawing or mass did not settle the structure.

Conditions: local anesthesia, background statement

Structure (SMILES)	effects lasting out to as long as [h]
CCCCN1CCCCC1C(=O)Nc1c(C)cccc1C (centres unmarked) [bupivicaine]	≤ 20
Cc1cccc(C)c1NC(=O)C1CCCCN1C (centres unmarked) [mepivicaine]	≤ 20
